These are yes or no findings as the source states them, for the method shown. Binding seen in cells or lysates may run through a third protein. Binding can be weak; no strength is given. Sequences can lack the tags named with a protein.

This test addresses T1, Myc-RNF181 (UniProt Q9P0P0).
T1 sequence: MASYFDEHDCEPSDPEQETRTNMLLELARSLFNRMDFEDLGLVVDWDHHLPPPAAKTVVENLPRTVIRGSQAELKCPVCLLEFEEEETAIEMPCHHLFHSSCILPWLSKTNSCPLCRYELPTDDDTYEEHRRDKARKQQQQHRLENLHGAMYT
Briefly: co-IP; HEK293 cells transfected with Myc-RNF181 and HA-ERα full length or mutants, 10 uM MG132 for 6 h, NP-40 lysis buffer; IP with Myc antibody, detection with HA antibody.

For the substance HA-ERα ΔAF2 + ΔDBD (domain or fragment), the binding result is recorded as “binds”.

Source of the values: paper PMC7605433.
